Measurements reported in PubChem BioAssay AID1224826 (NIAID, 2016)
Shown is an unselected part of about 17,000 deposited reagents. Of all reagents, about 1,110 (6.6%) got an active call. 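Active means lowered or raised reporter signal; replicate intensities are raw and not normalised per plate.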 A number with no mark means an inactive call. Further read-outs or replicates are left out here. Reagent sequences are not shown.

Assay: 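Genes that change LPS-induced Tnf promoter activity in mouse macrophages when knocked down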 (primary screen)
Cells: RAW264.7 G9 macrophages from mouse bearing reporters for p65 (GFP) and the Tnf promoter (mCherry)
Reagent: siRNA pool against mouse genes, 100 nM
Duration: 16 h of LPS stimulation, after 2 days of siRNA transfection
Treatment: bacterial lipopolysaccharide (Salmonella minnesota R595), 10 ng/ml
Measurement: 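Nuclear mCherry signal of the Tnf promoter reporter measured by imaging after background removal, scaled to each plate median and turned into robust z-scores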
Scale: Tnf reporter robust z-score: higher = stronger Tnf promoter reporter signal after LPS
Call rule: 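Called active when robust z-score is at most -1.3, matching the median of the Tlr4 knock-down control, or over 3; control wells and wells with under 50 cells never active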
Meaning of the calls: active = Tnf reporter clearly lowered or raised; inactive = no clear change in Tnf reporter

| gene | Tnf reporter robust z-score | fewer than 50 cells in well |
| --- | --- | --- |
| Sgcd | -0.6 | enough cells in well |
| G3bp2 | 1.65 | enough cells in well |
| Ms4a8a | 0.32 | enough cells in well |
| Rps4l | 0.09 | enough cells in well |
| Cnpy3 | -1.16 | enough cells in well |
| Slc29a4 | – | fewer than 50 cells per well; well left out of calls |
| Rnf41 | 0.16 | enough cells in well |
| Hpcal1 | 0.64 | enough cells in well |
| Serpinb6a | 1.1 | enough cells in well |
| Lzts2 | 2.01 | enough cells in well |
| Slc35f2 | – | fewer than 50 cells per well; well left out of calls |
| Slc16a7 | -1.3 (active) | enough cells in well |
| Pon1 | -0.53 | enough cells in well |
| Enpep | 0.02 | enough cells in well |
| Rad54l | 0.02 | enough cells in well |
| Aoc2 | -1.02 | enough cells in well |
| Syn1 | -1.24 | enough cells in well |
| Slc26a9 | 1.12 | enough cells in well |
| Acot3 | -1.32 (active) | enough cells in well |
| Or4c125 | -0.38 | enough cells in well |
| Xirp1 | -1.8 (active) | enough cells in well |
| Rfx2 | -0.68 | enough cells in well |
| Gprin1 | – | fewer than 50 cells per well; well left out of calls |
| Mrps18b | -0.17 | enough cells in well |

Active calls, among the entries above:
| gene | Tnf reporter robust z-score | fewer than 50 cells in well |
| --- | --- | --- |
| Slc16a7 | -1.3 (active) | enough cells in well |
| Acot3 | -1.32 (active) | enough cells in well |
| Xirp1 | -1.8 (active) | enough cells in well |
